No constants are given. Whether binding was seen depends on the method and setting. Some results given as binding are weak or reduced against the parent protein; the word gives no strength.
How the values were obtained:
[1] = target: Pfs48/45 (endogenous) (Plasmodium falciparum (endogenous in NF54 gametocytes and gametes)) (UniProt Q8I6T1); experiment: flow cytometry on cells
[2] = target: Pfs48/45 (endogenous) (Plasmodium falciparum (endogenous in NF54 gametocytes and gametes)) (UniProt Q8I6T1); experiment: western blot of saponin-treated gametocytes (membrane retention)

By UniProt entry, the sequences of proteins in these tests, tags left out. Residues count along the entry.
UniProt Q8I6T1, residues 28-426: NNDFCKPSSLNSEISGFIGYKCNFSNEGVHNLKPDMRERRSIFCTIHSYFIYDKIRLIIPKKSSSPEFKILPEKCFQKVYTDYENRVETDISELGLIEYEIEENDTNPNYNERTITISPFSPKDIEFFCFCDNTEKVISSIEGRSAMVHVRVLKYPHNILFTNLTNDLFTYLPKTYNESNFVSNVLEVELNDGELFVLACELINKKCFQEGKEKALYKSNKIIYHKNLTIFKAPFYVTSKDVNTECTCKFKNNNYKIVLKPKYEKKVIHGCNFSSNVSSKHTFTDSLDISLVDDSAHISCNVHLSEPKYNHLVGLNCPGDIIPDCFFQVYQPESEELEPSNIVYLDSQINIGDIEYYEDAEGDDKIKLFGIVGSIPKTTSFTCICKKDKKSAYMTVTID

Pfs230^ΔCterm (Pfs230 lacking the last 29 C-terminal residues, res. 3107-3135) (from UniProt P68874 21-3106) (domain or fragment)
binding [1]: no binding | binding [2]: no binding

Pfs230 (endogenous, wildtype NF54 parasites) (from UniProt P68874 21-3135)
binding [1]: binds
